Numbering of substitutions follows the chain as printed. Numbers in names are those of the source. No constants are given. Whether binding was seen depends on the method and setting. In cells and extracts the contact can be indirect. Here binding means that the protein was enriched with, or labelled near, the bait; the list need not be complete. Values belong to the binder of their own block, whether it stands above or below them.
Molecular target: T1, TDRKH (endogenous, mouse testis) (mouse (endogenous in mouse testes)) (UniProt Q80VL1)
T1 sequence: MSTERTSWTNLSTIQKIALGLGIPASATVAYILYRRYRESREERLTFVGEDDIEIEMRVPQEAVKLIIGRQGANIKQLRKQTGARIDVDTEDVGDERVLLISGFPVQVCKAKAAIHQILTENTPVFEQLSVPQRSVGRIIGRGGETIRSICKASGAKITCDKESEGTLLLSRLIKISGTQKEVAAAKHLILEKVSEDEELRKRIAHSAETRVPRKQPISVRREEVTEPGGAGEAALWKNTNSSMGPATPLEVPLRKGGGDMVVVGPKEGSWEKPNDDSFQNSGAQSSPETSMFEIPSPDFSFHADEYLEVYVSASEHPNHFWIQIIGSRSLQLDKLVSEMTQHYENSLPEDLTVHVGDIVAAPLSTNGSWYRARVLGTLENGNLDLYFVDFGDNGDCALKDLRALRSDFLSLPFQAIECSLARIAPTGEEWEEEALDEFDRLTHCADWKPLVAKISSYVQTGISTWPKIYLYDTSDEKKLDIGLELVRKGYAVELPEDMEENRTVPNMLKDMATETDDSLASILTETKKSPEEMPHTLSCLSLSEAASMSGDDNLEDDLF
Assay: affinity purification with mass spectrometry; anti-TDRKH immunoprecipitation from Pnldc1+/- and Pnldc1 E30A/- mouse testis lysates (25 mM Tris-HCl pH 7.4, 150 mM NaCl, 1% Triton X-100), Protein A agarose, RPLC-MS/MS

binding: binds
B1: PNLDC1 (endogenous, Pnldc1+/- mouse testis) (enzyme, UniProt B2RXZ1 1-531)
chain: MDVGADEFEQSLPLLQELVAGADFVGLDIEFTGLRSNLSRPQQISLFDLPSEWYLKTRQSVQQFTICQIGLSMFSSIEGESNKYVAHSCNFFLFPTTFGILDSEFSFQASSVQFLNQYGFDYNKFLKNGIPYMNEEQEKKIKHSILRGNWRVRSSLDKDQIKVVIDKVTQWLDLAEEGDQMTLPGIAGFQAFEVQLVLRQALPNIWTVLKEEWVIVKKVSQPQRWYLEHASCDQVSCWKEQILLSARGFSVFFQMLVKAQKPLVGHNMMMDLLHLHEKFFRPLPESYDQFKQNIHSLFPVLIDTKNVTKDIWKELRFPRVSNLLEVYEVLSSNLNPTKDSGPVIIHARQCKKYAETKCPHEAAYDAFLCGSVLLKVAHLLLQRVHGNGAVHEPAFPQYLDVLAPYVNQVNLIRAGVPKINFSGPDYPSIRPPVLILTVKRWPGVSEQQVYREFQNLCKFDVRRFTRSQFLLLTNKFKDARSVLKEYRNHPTLQVSLYRSWRHSPNITCLLQVCSIVTTWAMIAFLLGRPMP

binding: binds
B2: PNLDC1 E30A (endogenous, Pnldc1 E30A/- mouse testis) (enzyme, UniProt B2RXZ1 1-531)
chain: B1 chain with E30A

Reference: publication PMC11449332
